# Assay: general procedure: Fmoc solid-phase peptide synthesis; Wang resin; PyBOP/NMM
# Settings: whole synthesis, scale 12.5 μmol
substance,measurement,setting,value
Glu62-Ile-Leu-Ile-Phe-Trp-Ser-Lys-Asp-Ile-Gly-Tyr-Ser-Phe-Thr76,final HPLC purity,220 nm,above 98% pure
same,isolated mass,,approx. 15 mg

# Reference: patent publication US6528618B1 (Yeda Research and Development Co. Ltd., priority 1997, dated 2003)
